From US9339531B2, “Recognition of CYP2E1 epitopes” (The Johns Hopkins University, priority 2009, dated 2016)
At least one peptide structure holds a part that was inferred or is arguable (an end, a ring closure or a residue). Some entries repeat one wording, which the source may state once for all of them. Peptide text beside a SMILES is read from it.

Target: T1, mouse MHC II of the I-Ad haplotype (Mus musculus, UniProt P01921+P04228)
T1 construct: Cultures containing I-Ad hybridomas and 0.5 μg/ml of OVA peptide were set up in complete media; endogenous in cells; host or cells: I-Ad DO11.10 T cell hybridomas + LS102.9 cells
T1 sequence (P04228 24-256): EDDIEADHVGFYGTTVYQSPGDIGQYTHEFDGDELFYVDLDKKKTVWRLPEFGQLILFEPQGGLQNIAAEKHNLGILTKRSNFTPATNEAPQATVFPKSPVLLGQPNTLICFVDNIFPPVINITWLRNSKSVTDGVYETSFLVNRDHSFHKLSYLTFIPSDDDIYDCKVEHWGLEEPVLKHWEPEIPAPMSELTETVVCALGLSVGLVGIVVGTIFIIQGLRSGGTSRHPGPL
T1 sequence (P01921 28-265): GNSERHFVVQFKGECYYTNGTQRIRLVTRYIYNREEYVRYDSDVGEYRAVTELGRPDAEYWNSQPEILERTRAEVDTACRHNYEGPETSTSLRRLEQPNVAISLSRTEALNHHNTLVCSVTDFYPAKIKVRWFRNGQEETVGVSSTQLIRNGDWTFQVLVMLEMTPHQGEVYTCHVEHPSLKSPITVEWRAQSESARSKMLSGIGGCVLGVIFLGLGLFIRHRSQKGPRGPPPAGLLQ
Assay: Competitive inhibition assay to assess MHC II binding (I-Ad DO11.10 T cell hybridomas, OVA 323-329 peptide, CTLL-2 proliferation)
Assay type: cell-based
Details: for CTLL-2 proliferation (3H incorporation): I-Ad DO11.10 hybridomas with 0.5 ug/ml OVA 323-329 peptide; for competitive binding to the I-Ad hybridoma (mouse MHC II): competition with 0.5 ug/ml OVA 323-329 peptide, varying peptide concentrations

Row | Structure (SMILES) | CTLL-2 proliferation (3H incorporation) | competitive binding to the I-Ad hybridoma (mouse MHC II)
1 | CC(C)C[C@H](NC(=O)[C@H](CC(C)C)NC(=O)[C@H](CC(C)C)NC(=O)[C@H](Cc1ccccc1)NC(=O)[C@H](C)NC(=O)[C@H](C)NC(=O)[C@H](Cc1c[nH]c2ccccc12)NC(=O)[C@@H](NC(=O)[C@H](CC(C)C)NC(=O)[C@H](CC(C)C)NC(=O)[C@H](C)NC(=O)[C@@H](NC(=O)[C@@H](NC(=O)[C@@H](NC(=O)CNC(=O)[C@H](CC(C)C)NC(=O)[C@H](C)NC(=O)[C@@H](N)CO)C(C)C)[C@@H](C)O)C(C)C)C(C)C)C(=O)O [JHDN1] (H-SALGVTVALLVWAAFLLL-OH) | decreased proliferation | competitively bound
2 | CSCC[C@H](NC(=O)[C@H](CCCNC(=N)N)NC(=O)[C@@H](N)CCC(N)=O)C(=O)N[C@H](C(=O)N[C@H](C(=O)N[C@@H](CCSC)C(=O)N[C@@H](Cc1c[nH]cn1)C(=O)NCC(=O)N[C@@H](Cc1ccc(O)cc1)C(=O)N[C@@H](CCCCN)C(=O)N[C@@H](C)C(=O)N[C@H](C(=O)N[C@@H](CCCCN)C(=O)N[C@@H](CCC(=O)O)C(=O)N[C@@H](C)C(=O)N[C@@H](CC(C)C)C(=O)N[C@@H](CC(C)C)C(=O)N[C@@H](CC(=O)O)C(=O)O)C(C)C)C(C)C)C(C)C [JHDN2] (H-QRMVVMHGYKAVKEALLD-OH) | decreased proliferation | competitively bound
3 | CC[C@H](C)[C@H](N)C(=O)N[C@@H](Cc1ccccc1)C(=O)N[C@@H](CCCNC(=N)N)C(=O)NCC(=O)N[C@@H](Cc1ccc(O)cc1)C(=O)N[C@@H](CC(C)C)C(=O)N[C@H](C(=O)N1CCC[C@H]1C(=O)N[C@@H](CCCCN)C(=O)NCC(=O)N[C@H](C(=O)N[C@H](C(=O)N[C@@H](Cc1c[nH]c2ccccc12)C(=O)N1CCC[C@H]1C(=O)N[C@H](C(=O)N[C@@H](CC(C)C)C(=O)N[C@@H](CC(=O)O)C(=O)N[C@@H](CO)C(=O)O)[C@@H](C)O)C(C)C)[C@@H](C)O)[C@@H](C)CC [JHDN4] (H-IFRGYLIPKGTVWPTLDS-OH) | decreased proliferation | competitively bound
4 | CC[C@H](C)[C@H](N)C(=O)N[C@@H](CCCNC(=N)N)C(=O)N[C@@H](CCCNC(=N)N)C(=O)N[C@@H](Cc1ccccc1)C(=O)N[C@@H](CO)C(=O)N[C@@H](CC(C)C)C(=O)N[C@H](C(=O)N[C@H](C(=O)N[C@@H](CC(C)C)C(=O)N[C@@H](CCCNC(=N)N)C(=O)N[C@@H](CC(N)=O)C(=O)N[C@@H](Cc1ccc(O)cc1)C(=O)NCC(=O)N[C@@H](CCSC)C(=O)NCC(=O)N[C@@H](CCCCN)C(=O)N[C@@H](CCC(N)=O)C(=O)NCC(=O)N[C@@H](CC(N)=O)C(=O)N[C@@H](CCC(=O)O)C(=O)N[C@@H](CO)C(=O)O)[C@@H](C)O)[C@@H](C)O [JHDN9] (H-IRRFSLTTLRNYGMGKQGNES-OH) | decreased proliferation | competitively bound
